This is one part of the list.
Tests used:
Experiment in all cases: glycan array binding signal (z-score within array); higher = stronger binding
Conditions in all cases: glycan notation: IUPAC condensed, linker removed
[1] = biological target: GlcNAc(b1-3)Gal(b1-3)GalNAc
Summary of the method: (§1)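 Arrays were curated from the Consortium for Functional Glycomics database, 3228 in total, and kept only where the protein sequence was available. Binding is expressed as a within-array Z-score. This score was averaged across arrays of the same protein sequence at different concentrations or buffers and across linkers, and negative values can be read as non-binding.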

GlcNAc(b1-3)Gal(b1-4)Glc = biological target: GlcNAc(b1-3)Gal(b1-4)Glc
Summary of the method: as §1

[2] = biological target: GlcNAc(b1-3)Gal(b1-4)GlcNAc
Summary of the method: as §1

[3] = biological target: GlcNAc(b1-3)Gal(b1-4)GlcNAc(b1-2)Man(a1-3)[GlcNAc(b1-3)Gal(b1-4)GlcNAc(b1-2)Man(a1-6)]Man(b1-4)GlcNAc(b1-4)GlcNAc
Summary of the method: as §1

[4] = biological target: GlcNAc(b1-3)Gal(b1-4)GlcNAc(b1-2)Man(a1-3)[GlcNAc(b1-3)Gal(b1-4)GlcNAc(b1-2)Man(a1-6)]Man(b1-4)GlcNAc(b1-4)[Fuc(a1-6)]GlcNAc
Summary of the method: as §1

[5] = biological target: GlcNAc(b1-3)Gal(b1-4)GlcNAc(b1-2)[GlcNAc(b1-3)Gal(b1-4)GlcNAc(b1-6)]Man(a1-6)[GlcNAc(b1-3)Gal(b1-4)GlcNAc(b1-2)Man(a1-3)]Man(b1-4)GlcNAc(b1-4)GlcNAc
Summary of the method: as §1

[6] = biological target: GlcNAc(b1-3)Gal(b1-4)GlcNAc(b1-3)Gal(b1-4)GlcNAc
Summary of the method: as §1

[7] = biological target: GlcNAc(b1-3)Gal(b1-4)GlcNAc(b1-3)Gal(b1-4)GlcNAc(b1-2)Man(a1-3)[GlcNAc(b1-3)Gal(b1-4)GlcNAc(b1-3)Gal(b1-4)GlcNAc(b1-2)Man(a1-6)]Man(b1-4)GlcNAc(b1-4)GlcNAc
Summary of the method: as §1

[8] = biological target: GlcNAc(b1-3)Gal(b1-4)GlcNAc(b1-3)Gal(b1-4)GlcNAc(b1-2)Man(a1-3)[GlcNAc(b1-3)Gal(b1-4)GlcNAc(b1-3)Gal(b1-4)GlcNAc(b1-2)Man(a1-6)]Man(b1-4)GlcNAc(b1-4)[Fuc(a1-6)]GlcNAc
Summary of the method: as §1

[9] = biological target: GlcNAc(b1-3)Gal(b1-4)GlcNAc(b1-3)Gal(b1-4)GlcNAc(b1-2)[GlcNAc(b1-3)Gal(b1-4)GlcNAc(b1-3)Gal(b1-4)GlcNAc(b1-6)]Man(a1-6)[GlcNAc(b1-3)Gal(b1-4)GlcNAc(b1-3)Gal(b1-4)GlcNAc(b1-2)Man(a1-3)]Man(b1-4)GlcNAc(b1-4)[Fuc(a1-6)]GlcNAc
Summary of the method: as §1

[10] = biological target: GlcNAc(b1-3)Gal(b1-4)GlcNAc(b1-3)Gal(b1-4)GlcNAc(b1-3)Gal(b1-4)GlcNAc(b1-2)Man(a1-3)[GlcNAc(b1-3)Gal(b1-4)GlcNAc(b1-3)Gal(b1-4)GlcNAc(b1-3)Gal(b1-4)GlcNAc(b1-2)Man(a1-6)]Man(b1-4)GlcNAc(b1-4)GlcNAc
Summary of the method: as §1

[11] = biological target: GlcNAc(b1-3)Gal(b1-4)GlcNAc(b1-3)Gal(b1-4)GlcNAc(b1-3)Gal(b1-4)GlcNAc(b1-2)Man(a1-3)[GlcNAc(b1-3)Gal(b1-4)GlcNAc(b1-3)Gal(b1-4)GlcNAc(b1-3)Gal(b1-4)GlcNAc(b1-2)Man(a1-6)]Man(b1-4)GlcNAc(b1-4)[Fuc(a1-6)]GlcNAc
Summary of the method: as §1

[12] = biological target: GlcNAc(b1-3)Gal(b1-4)GlcNAc(b1-3)Gal(b1-4)GlcNAc(b1-3)Gal(b1-4)GlcNAc(b1-2)[GlcNAc(b1-3)Gal(b1-4)GlcNAc(b1-3)Gal(b1-4)GlcNAc(b1-3)Gal(b1-4)GlcNAc(b1-6)]Man(a1-6)[GlcNAc(b1-3)Gal(b1-4)GlcNAc(b1-3)Gal(b1-4)GlcNAc(b1-3)Gal(b1-4)GlcNAc(b1-2)Man(a1-3)]Man(b1-4)GlcNAc(b1-4)[Fuc(a1-6)]GlcNAc
Summary of the method: as §1

[13] = biological target: GlcNAc(b1-3)Gal(b1-4)GlcNAc(b1-3)Gal(b1-4)GlcNAc(b1-3)Gal(b1-4)GlcNAc(b1-3)Gal(b1-4)GlcNAc(b1-2)Man(a1-3)[GlcNAc(b1-3)Gal(b1-4)GlcNAc(b1-3)Gal(b1-4)GlcNAc(b1-3)Gal(b1-4)GlcNAc(b1-3)Gal(b1-4)GlcNAc(b1-2)Man(a1-6)]Man(b1-4)GlcNAc(b1-4)GlcNAc
Summary of the method: as §1

[14] = biological target: GlcNAc(b1-3)Gal(b1-4)GlcNAc(b1-3)Gal(b1-4)GlcNAc(b1-3)Gal(b1-4)GlcNAc(b1-3)Gal(b1-4)GlcNAc(b1-2)Man(a1-3)[GlcNAc(b1-3)Gal(b1-4)GlcNAc(b1-3)Gal(b1-4)GlcNAc(b1-3)Gal(b1-4)GlcNAc(b1-3)Gal(b1-4)GlcNAc(b1-2)Man(a1-6)]Man(b1-4)GlcNAc(b1-4)[Fuc(a1-6)]GlcNAc
Summary of the method: as §1

[15] = biological target: GlcNAc(b1-3)Gal(b1-4)GlcNAc(b1-3)Gal(b1-4)GlcNAc(b1-3)Gal(b1-4)GlcNAc(b1-3)Gal(b1-4)GlcNAc(b1-2)[GlcNAc(b1-3)Gal(b1-4)GlcNAc(b1-3)Gal(b1-4)GlcNAc(b1-3)Gal(b1-4)GlcNAc(b1-3)Gal(b1-4)GlcNAc(b1-6)]Man(a1-6)[GlcNAc(b1-3)Gal(b1-4)GlcNAc(b1-3)Gal(b1-4)GlcNAc(b1-3)Gal(b1-4)GlcNAc(b1-3)Gal(b1-4)GlcNAc(b1-2)Man(a1-3)]Man(b1-4)GlcNAc(b1-4)[Fuc(a1-6)]GlcNAc
Summary of the method: as §1

[16] = biological target: GlcNAc(b1-3)Gal(b1-4)GlcNAc(b1-3)Gal(b1-4)GlcNAc(b1-3)GalNAc
Summary of the method: as §1

[17] = biological target: GlcNAc(b1-3)Gal(b1-4)GlcNAc(b1-3)GalNAc
Summary of the method: as §1

[18] = biological target: GlcNAc(b1-3)Gal(b1-4)GlcNAc(b1-3)[GlcNAc(b1-3)Gal(b1-4)GlcNAc(b1-3)]GalNAc
Summary of the method: as §1

[19] = biological target: GlcNAc(b1-3)Gal(b1-4)GlcNAc(b1-6)[Gal(b1-3)]GalNAc
Summary of the method: as §1

[20] = biological target: GlcNAc(b1-3)Gal(b1-4)GlcNAc(b1-6)[GlcNAc(b1-3)Gal(b1-3)]GalNAc
Summary of the method: as §1

[21] = biological target: GlcNAc(b1-3)Gal(b1-4)GlcNAc(b1-6)[GlcNAc(b1-3)]Gal(b1-4)GlcNAc
Summary of the method: as §1

GlcNAc(b1-3)GalNAc = biological target: GlcNAc(b1-3)GalNAc
Summary of the method: as §1

GlcNAc(b1-3)Man = biological target: GlcNAc(b1-3)Man
Summary of the method: as §1

[22] = biological target: GlcNAc(b1-3)[GlcNAc(b1-4)][GlcNAc(b1-6)]GlcNAc
Summary of the method: as §1

[23] = biological target: GlcNAc(b1-3)[GlcNAc(b1-6)]Gal(b1-4)GlcNAc
Summary of the method: as §1

[24] = biological target: GlcNAc(b1-3)[GlcNAc(b1-6)]GalNAc
Summary of the method: as §1

[25] = biological target: GlcNAc(b1-4)Gal(b1-4)GlcNAc
Summary of the method: as §1

GlcNAc(b1-4)GlcNAc = biological target: GlcNAc(b1-4)GlcNAc
Summary of the method: as §1

[26] = biological target: GlcNAc(b1-4)GlcNAc(b1-4)GlcNAc
Summary of the method: as §1

[27] = biological target: GlcNAc(b1-4)GlcNAc(b1-4)GlcNAc(b1-4)GlcNAc(b1-4)GlcNAc
Summary of the method: as §1

[28] = biological target: GlcNAc(b1-4)GlcNAc(b1-4)GlcNAc(b1-4)GlcNAc(b1-4)GlcNAc(b1-4)GlcNAc
Summary of the method: as §1

[29] = biological target: GlcNAc(b1-4)[GlcNAc(b1-6)]GalNAc
Summary of the method: as §1

[30] = biological target: GlcNAc(b1-6)Gal(b1-4)GlcNAc
Summary of the method: as §1

GlcNAc(b1-6)GalNAc = biological target: GlcNAc(b1-6)GalNAc
Summary of the method: as §1

[31] = biological target: GlcNAc6S(b1-3)Gal(b1-4)GlcNAc
Summary of the method: as §1

Kdn(a2-3)Gal(b1-3)GalNAc = biological target: Kdn(a2-3)Gal(b1-3)GalNAc
Summary of the method: as §1

Kdn(a2-3)Gal(b1-3)GlcNAc = biological target: Kdn(a2-3)Gal(b1-3)GlcNAc
Summary of the method: as §1

Kdn(a2-3)Gal(b1-4)Glc = biological target: Kdn(a2-3)Gal(b1-4)Glc
Summary of the method: as §1

Kdn(a2-3)Gal(b1-4)GlcNAc = biological target: Kdn(a2-3)Gal(b1-4)GlcNAc
Summary of the method: as §1

[32] = biological target: Kdn(a2-3)Gal(b1-4)[Fuc(a1-3)]GlcNAc
Summary of the method: as §1

Kdn(a2-6)Gal(b1-4)GlcNAc = biological target: Kdn(a2-6)Gal(b1-4)GlcNAc
Summary of the method: as §1

[33] = biological target: Man(a1-2)Man(a1-2)Man(a1-3)Man
Summary of the method: as §1

[34] = biological target: Man(a1-2)Man(a1-2)Man(a1-6)[Man(a1-3)]Man
Summary of the method: as §1

Man(a1-2)Man(a1-3)Man = biological target: Man(a1-2)Man(a1-3)Man
Summary of the method: as §1

B1: EfCBM33A (Enterococcus faecalis), Q838S1 (protein)
chain: MKKSLLTIVLAFSFVLGGAALAPTVSEAHGYVASPGSRAFFGSSAGGNLNTNVGRAQWEPQSIEAPKNTFITGKLASAGVSGFEPLDEQTATRWHKTNITTGPLDITWNLTAQHRTASWDYYITKNGWNPNQPLDIKNFDKIASIDGKQEVPNKVVKQTINIPTDRKGYHVIYAVWGIGDTVNAFYQAIDVNIQ
glycan array binding signal (z-score) [1]: 0.666
glycan array binding signal (z-score) (GlcNAc(b1-3)Gal(b1-4)Glc): -0.475
glycan array binding signal (z-score) [2]: -0.604
glycan array binding signal (z-score) [3]: -0.031
glycan array binding signal (z-score) [4]: 0.113
glycan array binding signal (z-score) [5]: 2.03
glycan array binding signal (z-score) [6]: -0.171
glycan array binding signal (z-score) [7]: 0.794
glycan array binding signal (z-score) [8]: 0.272
glycan array binding signal (z-score) [9]: 0.957
glycan array binding signal (z-score) [10]: 0.649
glycan array binding signal (z-score) [11]: 0.39
glycan array binding signal (z-score) [12]: 1.26
glycan array binding signal (z-score) [13]: 0.549
glycan array binding signal (z-score) [14]: 4.24
glycan array binding signal (z-score) [15]: 1.38
glycan array binding signal (z-score) [16]: 0.242
glycan array binding signal (z-score) [17]: 0.02
glycan array binding signal (z-score) [18]: 0.187
glycan array binding signal (z-score) [19]: 0.986
glycan array binding signal (z-score) [20]: -0.633
glycan array binding signal (z-score) [21]: 0.14
glycan array binding signal (z-score) (GlcNAc(b1-3)GalNAc): -0.018
glycan array binding signal (z-score) (GlcNAc(b1-3)Man): -0.525
glycan array binding signal (z-score) [22]: -1.08
glycan array binding signal (z-score) [23]: -0.392
glycan array binding signal (z-score) [24]: -0.941
glycan array binding signal (z-score) [25]: -0.997
glycan array binding signal (z-score) (GlcNAc(b1-4)GlcNAc): -0.683
glycan array binding signal (z-score) [26]: -0.852
glycan array binding signal (z-score) [27]: -1.5
glycan array binding signal (z-score) [28]: 0.083
glycan array binding signal (z-score) [29]: -1.06
glycan array binding signal (z-score) [30]: 0.278
glycan array binding signal (z-score) (GlcNAc(b1-6)GalNAc): -0.171
glycan array binding signal (z-score) [31]: -0.765
glycan array binding signal (z-score) (Kdn(a2-3)Gal(b1-3)GalNAc): 0.216
glycan array binding signal (z-score) (Kdn(a2-3)Gal(b1-3)GlcNAc): 0.484
glycan array binding signal (z-score) (Kdn(a2-3)Gal(b1-4)Glc): -0.213
glycan array binding signal (z-score) (Kdn(a2-3)Gal(b1-4)GlcNAc): 1.86
glycan array binding signal (z-score) [32]: -0.769
glycan array binding signal (z-score) (Kdn(a2-6)Gal(b1-4)GlcNAc): 0.328
glycan array binding signal (z-score) [33]: -0.162
glycan array binding signal (z-score) [34]: -0.018
glycan array binding signal (z-score) (Man(a1-2)Man(a1-3)Man): -1.02

— the supplement of paper PMC8728848
